Screen size: about 580,000 compounds; about 6,100 (1.1%) were called active. The shares of active, inactive and inconclusive entries below differ from those in the screen. Calls follow the shape of the dose curve; as a rule, active = well fitted inhibition curve with a large enough effect; inconclusive = small, poorly fitted or top-dose-only effect, or another doubt; inactive = no such curve, though single readings can be large or run the other way. A potency beside an inconclusive call is a rough fit, not a confirmed value.
The molecules below were run against Polyunsaturated fatty acid lipoxygenase ALOX12 (Homo sapiens) (UniProt P18054) (assay: Primary qHTS assay for inhibitors of human arachidonate 12S-lipoxygenase (ALOX12): Round 2). Settings: purified 12hLO, xylenol orange hydroperoxide absorbance; activity change, negative = inhibition: at 108 µM (top of the series) unless noted.
Outline: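 Purified human 12hLO (150 nM final) in 25 mM Hepes, 0.01% Triton X-100, pH 7.0 was preincubated 15 min at room temperature with compound. Then 40 uM arachidonic acid was added, 30 min. Hydroperoxide was read by Fe-XO absorbance ratio 573/405 nm.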
% is scaled to controls: 0 for no effect and ±100 for the full control effect; potency is read from the fitted curve at half-maximal effect.

Chains of the proteins cited; added tags and fusions are not shown. Lines headed by an entry give the natural chain unless they say otherwise; changes in a name come on top.
UniProt P18054: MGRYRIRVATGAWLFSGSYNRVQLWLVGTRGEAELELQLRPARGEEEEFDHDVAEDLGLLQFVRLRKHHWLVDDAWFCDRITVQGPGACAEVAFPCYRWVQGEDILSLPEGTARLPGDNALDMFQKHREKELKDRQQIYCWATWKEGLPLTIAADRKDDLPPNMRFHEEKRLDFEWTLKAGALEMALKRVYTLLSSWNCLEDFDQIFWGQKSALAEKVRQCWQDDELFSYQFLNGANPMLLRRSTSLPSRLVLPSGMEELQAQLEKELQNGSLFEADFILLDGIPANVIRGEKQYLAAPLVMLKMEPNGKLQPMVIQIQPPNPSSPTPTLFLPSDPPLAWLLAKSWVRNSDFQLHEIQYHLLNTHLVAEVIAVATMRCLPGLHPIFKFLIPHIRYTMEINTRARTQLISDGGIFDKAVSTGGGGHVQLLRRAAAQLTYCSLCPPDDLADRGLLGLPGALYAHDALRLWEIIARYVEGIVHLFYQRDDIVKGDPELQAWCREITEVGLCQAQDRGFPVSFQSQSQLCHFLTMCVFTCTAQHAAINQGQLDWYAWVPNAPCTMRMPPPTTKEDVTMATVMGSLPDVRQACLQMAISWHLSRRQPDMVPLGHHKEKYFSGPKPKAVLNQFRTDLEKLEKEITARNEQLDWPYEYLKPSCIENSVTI

Row | Structure (SMILES) | Potency | activity change, negative = inhibition
1 | CC1=C(C(=O)OCc2ccccc2)C(c2ccccc2Br)NC(=O)N1 (stereo unspecified) | inconclusive: 126 µM [inhibitor, single point] | 
2 | CN1CCN(C(=S)NC(=O)c2ccc(Br)cc2)CC1 | inconclusive: 3.98 µM [inhibitor, full curve, poor fit] | 
3 | C#CCN(C[C@H]1[C@H](OC(=O)Nc2c(C)noc2C)[C@H](OC(=O)Nc2c(C)noc2C)CN(C(=O)OC(C)C)N1C(=O)OC(C)C)S(=O)(=O)c1ccc(C)cc1 | inconclusive: 112 µM [inhibitor, single point] | 
4 | O=C(c1ccc(F)cc1)N1CCC2(CC1)CN[S+](=O)([O-])c1cccnc1O2 | inconclusive: 3.16 µM [inhibitor, full curve, poor fit] | 
5 | CSc1ccccc1CNC(=O)C1(C)CCCN1CC(C)C (stereo unspecified) |  | inactive: -5.06%
6 | COc1ccc(/C=C(\NC(=O)c2ccccc2)C(=O)N/N=C/c2sccc2C)cc1 | inconclusive: 89.1 µM [inhibitor, single point] | 
7 | O=C(Cc1ccc(C(F)(F)F)cc1)Nc1ccc(F)cc1Cl |  | inactive: 6.77%
8 | COc1ccc(OC)c(CNC(=O)Cc2c(C(=O)O)[nH]c3ccccc23)c1 | inconclusive: 50.1 µM [inhibitor, full curve, poor fit] | 
9 | CC(OCC(O)CN(C)CCOc1ccccc1)c1ccc(Cl)cc1 (stereo unspecified) | inconclusive: 3.16 µM [inhibitor, full curve, poor fit] | 
10 | CC(=O)c1sc(=S)n(C)c1C | inconclusive: 56.2 µM [inhibitor, partial curve, poor fit] | 
11 | Cc1ccc(-n2nc(C)c(=O)c(-c3ccccc3)c2NC(=O)c2cccs2)cc1 | inconclusive: 126 µM [inhibitor, partial curve, poor fit] | 
12 | CCCCC(C)n1[nH]c(=O)c2c(C)cc(C)nc21 (stereo unspecified) |  | inactive: -21.6%
13 | Cn1c(=O)c2c(nc(Cl)n2CC(=O)NCc2ccccc2Cl)n(C)c1=O |  | inactive: -1.5%
14 | CN(Cc1cccs1)C(C(=O)NC1CC1)c1ccccc1 (stereo unspecified) |  | inactive: 16.2%
15 | CCOC(=O)c1cccc(NC(=O)c2cc3cc4ccc(C)cc4nc3o2)c1 | inconclusive: 0.891 µM [inhibitor, partial curve, poor fit] | 
16 | CC(=O)N1CCN(C(=S)c2ccc([N+](=O)[O-])cc2)CC1 | inconclusive: 22.4 µM [inhibitor, single point] | 
17 | CCCCCC(=O)NC(=S)Nc1ccc(N2CCOCC2)cc1 | inconclusive: 39.8 µM [inhibitor, partial curve, poor fit] | 
18 | Cn1cccc1/C=N/NC(=O)c1ccco1 | inconclusive: 1 µM [inhibitor, partial curve, poor fit] | 
19 | Cc1[nH]c2ccc(Br)cc2c1C(=O)CCl | inconclusive: 39.8 µM [inhibitor, partial curve, poor fit] | 
20 | O=C(O)/C(=C/c1ccccc1)c1cccs1 |  | inactive: -29.8%
21 | CCCN(CC(=O)Nc1cc(Cl)cc(Cl)c1)CC(=O)Nc1ccc(F)c(F)c1F |  | inactive: -15.5%
22 | CC(=O)c1c(C)nn(CCC(=O)O)c1C | inconclusive: 35.5 µM [inhibitor, partial curve, poor fit] | 

Looked up by compound from above:
Row | Structure (SMILES) | Potency | activity change, negative = inhibition
8 | COc1ccc(OC)c(CNC(=O)Cc2c(C(=O)O)[nH]c3ccccc23)c1 | inconclusive: 50.1 µM [inhibitor, full curve, poor fit] | 
19 | Cc1[nH]c2ccc(Br)cc2c1C(=O)CCl | inconclusive: 39.8 µM [inhibitor, partial curve, poor fit] | 
22 | CC(=O)c1c(C)nn(CCC(=O)O)c1C | inconclusive: 35.5 µM [inhibitor, partial curve, poor fit] | 

(next part)

Row | Structure (SMILES) | Potency | activity change, negative = inhibition
23 | CCN1CCN(CC(=O)c2c[nH]c3ccccc23)CC1 | inconclusive: 28.2 µM [inhibitor, single point] | 
24 | COc1cccc(-c2cncnc2NCc2ccc(OC)cc2OC)c1 | active: 12.6 µM | 
25 | Cc1cc(C)nc(Nc2nc(-c3ccccc3)c3ccc(Cl)cc3n2)n1 |  | inactive: 28.2%
26 | Cc1ccc(C)c(N2CCN(C(=O)C3CCN(c4nnc(-n5c(C)ccc5C)s4)CC3)CC2)c1 | inconclusive: 0.251 µM [inhibitor, full curve, poor fit] | 
27 | O=C(Nc1ccccc1Cl)c1cc(S(=O)(=O)N2CCC3(CC2)OCCO3)ccc1F | inactive | 
28 | CNCCCC1c2ccccc2C=Cc2ccccc21 | inactive | 
29 | N#Cc1ccccc1NC(=S)NC(=O)c1cccs1 | inconclusive: 44.7 µM [inhibitor, partial curve, poor fit] | 
30 | Nc1c(C(=O)O)cnc2c(-c3ccc(Cl)cc3)cnn12 | inconclusive: 0.631 µM [inhibitor, full curve, poor fit] | 
31 | O=C(NC(=S)Nc1ccccc1Br)c1ccc2c(c1)OCO2 | inconclusive: 35.5 µM [inhibitor, single point] | 
32 | COc1ccc2c(c1)cc(C(=O)Nc1ccccc1C)n2C |  | inactive: 4.85%
33 | O=C(NCC(c1cccs1)N1CCCC1)c1cc2ccccc2oc1=O (stereo unspecified) | inconclusive: 50.1 µM [inhibitor, partial curve, poor fit] | 
34 | CCCNC(=O)c1ccc(OCc2nnc(C(=O)Nc3ccccc3F)s2)cc1 | inconclusive: 200 µM [inhibitor, partial curve, poor fit] | 
35 | Cc1cccn2c(=O)c3cc(C(=O)NC4CCCCC4)c(=N)n(CCN4CCOCC4)c3nc12 |  | inactive: -0.325%
36 | CCC1c2ccsc2CCN1C(=O)CC12CC3CC(CC(Br)(C3)C1)C2 (stereo unspecified) | inconclusive: 50.1 µM [inhibitor, partial curve, poor fit] | 
37 | CN1CCN(C(=O)c2cc(=O)[nH]o2)CC12CCC(=O)N(CCO)CC2 (stereo unspecified) | inconclusive: 20 µM [inhibitor, full curve] | 
38 | COc1ccccc1-c1cc(=O)c2cc(NS(=O)(=O)c3ccc(C)cc3)ccc2o1 | inconclusive: 17.8 µM [inhibitor, partial curve, poor fit] | 
39 | CCOCCCNc1nc2c(c(=O)n(C)c(=O)n2C)n1Cc1ccc(Cl)c(Cl)c1 |  | inactive: -1.5%
40 | c1coc(CN2CC(Oc3ccc(-c4noc(-c5ccncc5)n4)cc3)C2)c1 |  | inactive: -20.8%
41 | O=C(C[n+]1ccc(C(=O)c2ccccc2)cc1)Nc1cccc([N+](=O)[O-])c1 | inconclusive: 35.5 µM [inhibitor, partial curve, poor fit] | 
42 | COc1cccc(CN(CCC(=O)O)Cc2cccc(OC)c2)c1 | active: 17.8 µM | 
43 | O=C1C=CC(=O)c2c(O)c(N3CCN(CCO)CC3)c(Cl)c(O)c21 | inconclusive: 39.8 µM [inhibitor, partial curve] | 
44 | CCOc1ccc(CN(CCOC)Cc2cc(=O)n3cccc(C)c3n2)cc1 | inconclusive: 15.8 µM [inhibitor, full curve] | 

Row | Structure (SMILES) | Potency | activity change, negative = inhibition
45 | CCOC(=O)Cc1cc(=O)n(-c2nc3ccccc3s2)[nH]1 | active: 7.94 µM | 
46 | COc1ccc(-c2oc(=O)c3cc(OC)c(OC)cc3c2C#C[C@]2(O)CC[C@H]3[C@@H]4CCc5cc(OC)ccc5[C@H]4CC[C@@]32C)cc1 | inconclusive: 89.1 µM [inhibitor, partial curve, poor fit] | 
47 | O=C(CSc1oc(-c2ccc(F)cc2)nc1S(=O)(=O)c1ccccc1)NCC1CCCO1 (stereo unspecified) | inconclusive: 126 µM [inhibitor, partial curve, poor fit] | 
48 | CC(=O)N1CCN(C(=O)Cn2ccc3ccc(OCc4ccccc4)cc32)CC1 |  | inactive: 56.5%
49 | CC[N+]1(C)CCC(=C2c3ccccc3CC(=O)c3sccc32)CC1 (stereo unspecified) |  | inactive: -6.47%
50 | Cc1ccc(NC(=O)COC(=O)C2CC3C=CC2C3)cc1S(=O)(=O)N1CCCCC1 (stereo unspecified) |  | inactive: -17.5%
51 | CC(NC(=S)NNS(=O)(=O)c1ccc(C(C)(C)C)cc1)c1ccccc1 (stereo unspecified) | inconclusive: 44.7 µM [inhibitor, partial curve, poor fit] | 
52 | COC(=O)c1c(NC(=O)CSc2ncnc3ccccc23)sc2c1CCCC2 | inconclusive: 112 µM [inhibitor, single point] | 
53 | COc1ccc(C(C(=O)NC2CCCCC2)N(Cc2ccco2)C(=O)c2ccccn2)c(OC)c1 (stereo unspecified) | inconclusive: 141 µM [inhibitor, partial curve, poor fit] | 
54 | COc1cc(NC(=O)c2ccc(-c3nc(COc4ccccc4)c(C)o3)cc2)cc(OC)c1 |  | inactive: -6.47%
55 | Fc1ccc(Nc2nc(-c3ccc(F)cc3)cs2)cc1 | inconclusive: 44.7 µM [inhibitor, partial curve, poor fit] | 
56 | C[C@H](Nc1ncnc2sc3c(c12)CCC3)C(=O)O | inconclusive: 79.4 µM [inhibitor, partial curve, poor fit] | 
57 | CCOC(=O)c1ccc(NC(=O)Nc2ccc3c4c(cccc24)C(=O)N3CC)cc1 |  | inactive: 6.1%
58 | COC(=O)c1[nH]c(C)c(/C(O)=C2\C(=O)C(=O)N(CCN(C)C)C2c2ccc(C)o2)c1C (stereo unspecified) | inconclusive: 3.16 µM [inhibitor, full curve, poor fit] | 
59 | COc1ccc(Nc2nc(N3CCOCC3)nc(N3CCOCC3)n2)c(OC)c1 |  | inactive: 3.56%
60 | O=C1NCCOC(=O)[C@H](Cc2ccc(F)cc2)C/C=C\C[C@H]1CC(=O)N(CCO)Cc1ccccc1 |  | inactive: 0%
61 | CC(C)NC(=O)N(C)C[C@@H]1Oc2c(NC(=O)Nc3ccccc3)cccc2C(=O)N([C@H](C)CO)C[C@H]1C | inconclusive: 28.2 µM [inhibitor, single point] | 
62 | COc1cccc(-c2cnc(C(O)c3ccc(CN4CCCC4)cc3)[nH]2)c1 (stereo unspecified) | inconclusive: 126 µM [inhibitor, partial curve, poor fit] | 
63 | CCNc1ncc2nc(-c3cccs3)c(=O)n(Cc3ccc(F)cc3)c2n1 | inconclusive: 31.6 µM [inhibitor, partial curve, poor fit] | 
64 | Cc1ccc(S(=O)(=O)c2cnc(SC(C)C(=O)Nc3ccccc3)[nH]c2=O)cc1 (stereo unspecified) | inconclusive: 112 µM [inhibitor, partial curve, poor fit] | 
65 | Cc1nc2ccccc2nc1N/N=C/c1ccc(O)cc1O | inconclusive: 79.4 µM [inhibitor, single point] | 
66 | COc1ccc(NS(=O)(=O)c2ccc(C)c(C(=O)N(C)Cc3ccc(C)cc3)c2)cc1 | inconclusive: 31.6 µM [inhibitor, single point] | 
